The whole screen tested about 410,000 compounds, of which about 18,000 (4.4%) were called active. Inconclusive means that the source gave no clear call. Such entries were picked first, then a sample of the others. No stated cut-off is given here; in the data, active means activity change below about -60%; inconclusive means no clear call, values can overlap the other calls; inactive means above about -39%.
Test: qHTS Assay for inhibitors of the human cytomegalovirus (HCMV)
Conditions: HFF cells, HCMV-luciferase reporter, 72 h; at 57.5 µM; stronger effect = lower value
Outline: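 Luciferase read-out from HCMV-luciferase-infected HFFs (MOI 1 PFU/cell) 72 h post infection at 37C; compounds added after 16 h cell attachment; activity normalized between buffer-only basal and Salinomycin (10uM) inhibitor controls.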
On the % scale 0 is the no-effect control and ±100 the full control effect.

Row | Compound | activity change, negative = inhibition
1 | CCOC(=O)c1c(NC(C)=O)sc2c1CCCNC2=O | inactive: 30.1%
2 | Cc1ccc(-n2c(SCC(=O)Nc3cccc(S(N)(=O)=O)c3)nc3ccccc32)cc1 | inconclusive: -56.8%
3 | CCOCCN1CCN(C2c3ccccc3CSc3ccccc32)CC1 (stereo not drawn) | inconclusive: -52.8%
4 | Cc1ccccc1C(=O)Nc1c2c(nc3ccccc13)CCCC2 | inconclusive: -46.4%
5 | Cn1sc(=O)c2cc(S(=O)(=O)NC3CC3)ccc21 | active: -82.6%
6 | COc1ccc(-c2nnnn2-c2ccc(F)cc2F)cc1 | inactive: -10.1%
7 | Clc1ccc2[nH]c3c(NCC4CCCO4)ncnc3c2c1 (stereo not drawn) | active: -65.1%
8 | CC(N)c1csc(NC(=O)Nc2cccc(C(F)(F)F)c2)n1 (stereo not drawn) | active: -68.2%
9 | CCOc1ccc2[nH]cc(C(=O)O)c(=O)c2c1 | inactive: -12%
10 | CCC[C@@H](CN[C@@H](CNC)C(C)C)NCCCCc1ccccc1 | inconclusive: -45.1%
11 | Cc1ccc(C(=O)N/C(=C/c2ccco2)C(=O)NCCCn2ccnc2)cc1 | inconclusive: -45.5%
12 | Cc1cccc(C)c1N1C(=O)c2cccc([N+](=O)[O-])c2C1=O | active: -62.7%
13 | CC(C)C(NC(=O)CSCc1ccc([N+](=O)[O-])cc1)C(C)C | inconclusive: -40.2%
14 | O=C(C[C@@H]1C/C=C/CC[C@H](Cc2ccc(F)cc2)C(=O)OC[C@@H](Cc2ccccc2)NC1=O)N[C@H](CO)Cc1ccccc1 | active: -98.5%
15 | C[C@@H](C(=O)NC1CCCC1)N1C(=O)N2CCc3c([nH]c4ccccc34)[C@@]2(C)C1=O | inactive: 16.3%
16 | COc1ccc(-c2oc3ccccc3c(=O)c2OC(=O)c2ccc(C)cc2)cc1 | active: -74.6%
17 | O=C(COc1ccccc1Cl)Nc1cc(NC(=O)COc2ccccc2Cl)cc(C(=O)O)c1 | inactive: 11.4%
18 | Cc1onc(-c2ccccc2)c1C(=O)Nc1ccc2c(c1)OCO2 | inconclusive: -55.4%
19 | CC(=O)Nc1ccc(N2CCC(C)CC2)c([N+](=O)[O-])c1 | inconclusive: -52%
20 | N#CC1=C(N)C(C#N)(C#N)[C@H](c2c(F)cccc2F)[C@H]2CC3(CC=C12)OCCO3 | active: -107%
21 | CN(C)c1nc(NCc2ccccc2)nc(N/N=C/c2cccc(Br)c2)n1 | inconclusive: -59.4%
22 | CC(=O)c1ccccc1NC(c1nnnn1-c1c(C)cccc1C)C1CC1 (stereo not drawn) | inconclusive: -49.9%

Row | Compound | activity change, negative = inhibition
23 | CS(=O)(=O)c1ccc(Cl)c(NC(=O)CSc2n[nH]c(-c3cccs3)n2)c1 | inactive: 99.2%
24 | O=C(Nc1cccc(C(=O)OCc2cc(=O)n3c4c(sc3n2)CCCC4)c1)c1ccc(Cl)cc1 | inconclusive: -54.3%
25 | CS(=O)(=O)N1CCN(C(=O)C(Sc2ccccc2)c2ccccc2)CC1 (stereo not drawn) | inactive: -37.5%
26 | CSCCC(NC(=O)c1ccccc1)C(=O)Nc1ccc(C)cc1 (stereo not drawn) | inconclusive: -40.4%
27 | NS(=O)(=O)c1ccc(NC(=O)COC(=O)c2cc3ccccc3oc2=O)cc1 | inconclusive: -40.2%
28 | O=C1c2ccsc2SCCN1Cc1cccc(F)c1 | inconclusive: -45.9%
29 | N#Cc1ccc(-c2ccccc2)nc1SCC(=O)c1cccc(Cl)c1 | inconclusive: -44%
30 | Cc1nnc(N/N=C/c2ccccc2O)n1N | active: -104%
31 | COc1ccc(C(C)(C)C)cc1S(=O)(=O)n1ccnc1C | active: -69.7%
32 | CCCC(=O)Nc1cccc(NC(=S)NC(=O)C(C)Oc2ccc(Cl)cc2Cl)c1 (stereo not drawn) | inconclusive: -51.4%
33 | C=CC[n+]1c(-c2ccc(Cl)cc2Cl)csc1Nc1ccc(NC(C)=O)cc1 | active: -93.6%
34 | Cc1cc2cc(CNC(=S)NC3CCCCC3)ccc2n1C | inconclusive: -52.4%
35 | Cn1c(=O)c2c(nc(NCCOc3ccc(F)cc3)n2C)n(C)c1=O | inconclusive: -41.7%
36 | Cc1ccccc1C1CC(c2cccs2)Nc2nnnn21 (stereo not drawn) | inconclusive: -50.1%
37 | CCOc1cccc(C(=O)Nc2ccc3oc(-c4ccncc4)nc3c2)c1 | inconclusive: -47.6%
38 | Cc1cc(C)c(NC(=O)CSc2nc3nccnc3c(=O)n2CCc2c[nH]c3ccccc23)c(C)c1 | inactive: -19.7%
39 | COc1cccc(/C=N/Nc2ccccc2C(=O)O)c1O | active: -79.8%
40 | [N-]=[N+]=CC(=O)c1ccnc(C(=O)C=[N+]=[N-])c1 | inconclusive: -53.2%
41 | CCOc1cccc(-c2nnc3sc(-c4cccs4)nn23)c1 | inconclusive: -56.4%
42 | COc1ccc(C(=O)NCC(c2ccco2)N2CCc3ccccc3C2)c(OC)c1 (stereo not drawn) | inactive: -29.9%
43 | CCC(CO)Oc1cc(NCc2cccc(C)c2)c2ncn(C(C)C)c2c1 (stereo not drawn) | active: -75.9%

For reference, part of the list above:
Row | Compound | activity change, negative = inhibition
33 | C=CC[n+]1c(-c2ccc(Cl)cc2Cl)csc1Nc1ccc(NC(C)=O)cc1 | active: -93.6%
34 | Cc1cc2cc(CNC(=S)NC3CCCCC3)ccc2n1C | inconclusive: -52.4%
